In article PMC12249541, “Novel Derivatives of 3-Amino-4-hydroxy-benzenesulfonamide: Synthesis, Binding to Carbonic Anhydrases, and Activity in Cancer Cell 2D and 3D Cultures” (International Journal of Molecular Sciences, 2025):
pEC50: −log10 of the molar value.

How the values were obtained:
Format in all cases: cell-based
[1] = system: human glioblastoma U-87; assay: MTT cell viability assay, U-87; conditions: 72 h
[2] = system: triple-negative breast cancer MDA-MB-231; assay: MTT cell viability assay, MDA-MB-231; conditions: Homo sapiens, 72 h
[3] = system: prostate adenocarcinoma PPC-1; assay: MTT cell viability assay, PPC-1; conditions: Homo sapiens, 72 h
[4] = system: human foreskin fibroblasts (HFs); assay: MTT cell viability assay, fibroblasts; conditions: Fibroblast, 72 h

Measured: pEC50

CC(=O)Nc1nnc(S(N)(=O)=O)s1 [AZM, acetazolamide, reference compound]
< 3.30: all assays above
